Measured values from patent publication US20150141506A1, “INDANE DIMERS FOR USE IN THE TREATMENT OF AUTOIMMUNE INFLAMMATORY DISEASE” (Venantius Limited, priority 2012, published 2015).
The name of at least one read-out is uncertain. Some results were stated once for a whole list of compounds, not compound by compound. Some compounds share one range, which may span the group rather than tell each member.

Test system: IL2 release from Jurkat cells
Test: Effect of compounds on IL-2 secretion in T lymphocytes (Jurkat 6.1, anti-CD3/anti-CD28 stimulated, ELISA)
Format: cell-based
Details: for effect on IL2 release, in words: 1 and 10 μM
Protocol: The T cell line Jurkat 6.1 (ATCC) was used. Cells were pre-treated for 30 min with 1 μM or 10 μM of the respective compound and then stimulated with plate-bound anti-CD3 (BD Pharmingen) and anti-CD28 (AnCell). DMSO was used as vehicle control. […] After 24 hs the supernatant was collected and IL-2 secretion was measured by ELISA.
Compounds were prepared by dissolution in DMSO to yield final concentrations of 1 and 10 μg/ml

SMILES	effect on IL2 release, in words	further results
COC(=O)c1ccc(C[C@@]2(C3=Cc4ccccc4C3)Cc3ccccc3[C@H]2OC(=O)[C@@H](N)CC(C)C)cc1 [Compound 39, methyl 4-(((1S,2S)-1-(((S)-2-amino-4-methylpentanoyl)oxy)-2,3-dihydro-1H,1′H-[2,2′-biinden]-2-yl)methyl)benzoate]	more potent in terms of IL2 inhibition than the corresponding R, R derivatives 32-38	
CCOC(=O)c1ccc(C[C@@]2(C3=Cc4ccccc4C3)Cc3ccccc3[C@H]2OC(=O)[C@@H](N)CC(C)C)cc1 [Compound 40, ethyl 4-(((1S,2S)-1-(((S)-2-amino-4-methylpentanoyl)oxy)-2,3-dihydro-1H,1′H-[2,2′-biinden]-2-yl)methyl)benzoate]	more potent in terms of IL2 inhibition than the corresponding R, R derivatives 32-38	
CCCOC(=O)c1ccc(C[C@@]2(C3=Cc4ccccc4C3)Cc3ccccc3[C@H]2OC(=O)[C@@H](N)CC(C)C)cc1 [Compound 41, propyl 4-(((1S,2S)-1-(((S)-2-amino-4-methylpentanoyl)oxy)-2,3-dihydro-1H, 1′H-[2,2′-biinden]-2-yl)methyl)benzoate]	more potent in terms of IL2 inhibition than the corresponding R, R derivatives 32-38	
CC(C)C[C@H](N)C(=O)O[C@@H]1c2ccccc2C[C@@]1(Cc1ccc(C(N)=O)cc1)C1=Cc2ccccc2C1 [Compound 42, (1S,2S)-2-(4-carbamoylbenzyl)-2,3-dihydro-1H,1′H-2,2′-biinden-1-yl L-leucinate]	more potent in terms of IL2 inhibition than the corresponding R, R derivatives 32-38	
CC(C)C[C@H](N)C(=O)O[C@@H]1c2ccccc2C[C@@]1(Cc1ccc(C(=O)NCCO)cc1)C1=Cc2ccccc2C1 [Compound 43, (1S,2S)-2-{4-[(2-Hydroxyethyl)carbamoyl]benzyl}-2,3-dihydro-1H,1′H-2,2′-biinden-1-yl leucinate]		effect on IL2 release, in words (listed as compound 43): more potent in terms of IL2 inhibition than the corresponding R, R derivatives 32-38
CNC(=O)c1ccc(C[C@@]2(C3=Cc4ccccc4C3)Cc3ccccc3[C@H]2OC(=O)[C@@H](N)CC(C)C)cc1 [Compound 44, (1S,2S)-2-[4-(methylcarbamoyl)benzyl]-2,3-dihydro-1H,1′H-2,2′-biinden-1-yl L-leucinate]	more potent in terms of IL2 inhibition than the corresponding R, R derivatives 32-38	
CC(C)C[C@H](N)C(=O)O[C@@H]1c2ccccc2C[C@@]1(Cc1ccc(C(=O)N(C)C)cc1)C1=Cc2ccccc2C1 [Compound 45, (1S,2S)-2-[4-(dimethylcarbamoyl)benzyl]-2,3-dihydro-1H,1′H-2,2′-biinden-1-yl L-leucinate]		effect on IL2 release, in words (listed as compound 45): more potent in terms of IL2 inhibition than the corresponding R, R derivatives 32-38
CN[C@@H]1C[C@H]2O[C@@](C)([C@@H]1OC)n1c3ccccc3c3c4c(c5c6ccccc6n2c5c31)C(=O)NC4 [Staurosporine, reference compound]		IL-2 production, absolute values (control inhibitors, concentration not given in table, plate 2 or 3): 117.75 pg/mL
